US6103872, “CAPON: a protein associated with neuronal nitric oxide synthase” (The Johns Hopkins University, dated 2000)

Molecular target: GST (control) (Schistosoma japonicum (Blood fluke), UniProt P08515 = GST)
Assay: GST pull-down from cerebellar lysates, Western blot with anti-CAPON

B1: rat brain CAPON (endogenous, cerebellar supernatant) (other)
chain: MPSKTKYNLVDDGHDLRIPLHNEDAFQHGISFEAKYVGSLDVPRPNSRVEIVAAMRRIRYEFKAKNIKKKKVSIMVSVDGVKVILKKKKKKKEWTWDESKMLVMQDPIYRIFYVSHDSQDLKIFSYIARDGASNIFRCNVFKSKKKSQAMRIVRTVGQAFEVCHKLSLQHTQQNADGQEDGESERNSDGSGDPGRQLTGAERVSTATAEETDIDAVEVPLPGNDILEFSRGVTDLDAIGKDGGSHIDTTVSPHPQEPMLAASPRMLLPSSSSSKPPGLGTGTPLSTHHQMQLLQQLLQQQQQQTQVAVAQVHLLKDQLAAEAAARLEAQARVHQLLLQNKDMLQHISLLVKQVQELELKLSGQSTMGSQDSLLEITFRSGALPVLCESTTPKPEDLHSPLLGAGLADFAHPVGSPLGRRDCLVKLECFRFLPAEDNQPMAQGEPLLGGLELIKFRESGIASEYESNTDESEERDSWSQEELPRLLNVLQRQELGDSLDDEIAV
B1: no binding.
